The list shows a part of the results.
Each sequence was assayed against OsWRKY34 (Oryza sativa, UniProt Q0JBA9 1-250) (assay: protein-binding microarray (RPBM); PBS, 2% BSA, 51.3 ng/ul salmon testes DNA, 50 uM zinc acetate, 200 nM TF, 25 C, 1 h; high values mean tight binding). Settings: protein: recombinant; tags: N-terminal polyhistidine and DsRed monomer fusion (pET32a); label: CyDye5-dUTP incorporated in the synthesized complementary strand; 3' TTTTT single-stranded linker to array surface; dsDNA, one strand shown.
How it was run: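 The binding signal is fluorescence intensity per feature, in arbitrary units, read on an Axon 4000B scanner. Polyhistidine- and DsRed-tagged transcription factors (N-terminal fusions) from E. coli BL21-CodonPlus were purified on Ni–NTA and applied at 200 nM for 1 h at 25 °C to a double-stranded, BSA-blocked custom Agilent array in buffer with 50 µM zinc acetate.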

The chains behind the UniProt entries cited, without tags or fusion partners.
UniProt Q0JBA9, entry or part of it: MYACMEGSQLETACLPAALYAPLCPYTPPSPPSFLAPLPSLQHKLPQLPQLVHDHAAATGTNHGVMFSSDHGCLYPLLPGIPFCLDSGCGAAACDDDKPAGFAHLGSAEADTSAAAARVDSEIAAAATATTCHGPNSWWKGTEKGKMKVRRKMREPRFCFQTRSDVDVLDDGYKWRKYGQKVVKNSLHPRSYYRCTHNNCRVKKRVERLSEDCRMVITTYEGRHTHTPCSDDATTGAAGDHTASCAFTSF

Sequence	binding signal
TATGCAGGTGCCTCCACGCCTTTTTTTTTTCTTTTCTTTTCGGAGTCACCTAGTGCAG	9490 fluorescence intensity (a.u.)
CTTAGCTCAACACTATATAGTACTGCATGCGTTTGATATACGGAGTCACCTAGTGCAG	9170 fluorescence intensity (a.u.)
GCCTACAATTTGTAGTTTGTACTTCAATGATGTGATCAACCGGAGTCACCTAGTGCAG	8110 fluorescence intensity (a.u.)
ATATTTCCTCCGTGTCCATCCAGCATTCCATCGTGAAATTCGGAGTCACCTAGTGCAG	14600 fluorescence intensity (a.u.)
TTCATTTTTTCTATGGTTGGTTCTTGTGTGTCCTTAAGCGCGGAGTCACCTAGTGCAG	9860 fluorescence intensity (a.u.)
CCGCCACCACCCGTGCCCGCCGCATCCAGCTCATCTCCGTCGGAGTCACCTAGTGCAG	10100 fluorescence intensity (a.u.)
GATCTCTCTCACACAGTGCTGCATGCTTCCTTCCATGAATCGGAGTCACCTAGTGCAG	9220 fluorescence intensity (a.u.)
TTCCTATGTTTTTCCTGTGTTTTGTAATTCTCTGTTTTACCGGAGTCACCTAGTGCAG	10600 fluorescence intensity (a.u.)
TTCTCCATTTTTCACCATTTTTAGGTCAGTGTATTGCTTACGGAGTCACCTAGTGCAG	9910 fluorescence intensity (a.u.)
GCTTGCATTGCTTCACCATAACTCACCTTCTTTTGCATGACGGAGTCACCTAGTGCAG	9860 fluorescence intensity (a.u.)
AGGCTCGATTGGGTTCATGGGGTAAAACTATACTTTCATACGGAGTCACCTAGTGCAG	9580 fluorescence intensity (a.u.)
CTAGCTTTGAGGTGGAGGTGGTGGTGGAGGAGGAGGAGGACGGAGTCACCTAGTGCAG	12600 fluorescence intensity (a.u.)
GACTCGGTCTCGTCCTCCGCTCTCTACATATCCCCGGATCCGGAGTCACCTAGTGCAG	11100 fluorescence intensity (a.u.)
AATTCACGCATGTATTAGCTCTTTTTTTTCTCGAAAATTTCGGAGTCACCTAGTGCAG	8200 fluorescence intensity (a.u.)
CCCGCTGCTTGCCACCTCTCCTCCGTGTGCGCCACCGCCGCGGAGTCACCTAGTGCAG	8220 fluorescence intensity (a.u.)
GGACAACCGGATAGTAGTTGCTCTCTCTTTCCGTCTTTTTCGGAGTCACCTAGTGCAG	10600 fluorescence intensity (a.u.)
GCACACTGACACACAGTCACACACCATCCCGCTCTCTCCACGGAGTCACCTAGTGCAG	8430 fluorescence intensity (a.u.)
GCTTGGTGTTTGTGCTTGTTGTTGCGTTGCGTTTGCTTATCGGAGTCACCTAGTGCAG	12400 fluorescence intensity (a.u.)
ACCCTCCGCACTTCATCTCGCATCGCGTTCGCCGCCGCTCCGGAGTCACCTAGTGCAG	14200 fluorescence intensity (a.u.)
GTCTACTATCCTCTTTCATTGTCTTTTTGTTGGTTGGTTTCGGAGTCACCTAGTGCAG	17600 fluorescence intensity (a.u.)
AATCAGAATATTACCTTCTTGTATTTGTTCTCTGTAGGAACGGAGTCACCTAGTGCAG	8870 fluorescence intensity (a.u.)
CCGGTCTAAGGGTACTCATATAAATTTTTTTTCTTTTGTTCGGAGTCACCTAGTGCAG	8560 fluorescence intensity (a.u.)
ACACATTCAATTTTATTCATATATCCCTTACCCTTTCATTCGGAGTCACCTAGTGCAG	8580 fluorescence intensity (a.u.)
GGTTTGGAGTTTGGACTCGGGTCGGTGTTGCGCTTTGCCCCGGAGTCACCTAGTGCAG	8110 fluorescence intensity (a.u.)
AAAACAAACTCTGAGTTTCCGTGCCAACGTTTGACTATCCCGGAGTCACCTAGTGCAG	8320 fluorescence intensity (a.u.)
TTTGTTTTGTTCGTTACTCTGAAACAACCAAGTTGTTTTTCGGAGTCACCTAGTGCAG	9090 fluorescence intensity (a.u.)
CAGGGGTATGGTCGGATTCCATATTCTAACCTATATTTTCCGGAGTCACCTAGTGCAG	8740 fluorescence intensity (a.u.)

Another view of some results above.

| Sequence | binding signal |
| --- | --- |
| TATGCAGGTGCCTCCACGCCTTTTTTTTTTCTTTTCTTTTCGGAGTCACCTAGTGCAG | 9490 fluorescence intensity (a.u.) |
| CTTAGCTCAACACTATATAGTACTGCATGCGTTTGATATACGGAGTCACCTAGTGCAG | 9170 fluorescence intensity (a.u.) |
| GCCTACAATTTGTAGTTTGTACTTCAATGATGTGATCAACCGGAGTCACCTAGTGCAG | 8110 fluorescence intensity (a.u.) |
| ATATTTCCTCCGTGTCCATCCAGCATTCCATCGTGAAATTCGGAGTCACCTAGTGCAG | 14600 fluorescence intensity (a.u.) |
| TTCATTTTTTCTATGGTTGGTTCTTGTGTGTCCTTAAGCGCGGAGTCACCTAGTGCAG | 9860 fluorescence intensity (a.u.) |
| TTCCTATGTTTTTCCTGTGTTTTGTAATTCTCTGTTTTACCGGAGTCACCTAGTGCAG | 10600 fluorescence intensity (a.u.) |
| TTCTCCATTTTTCACCATTTTTAGGTCAGTGTATTGCTTACGGAGTCACCTAGTGCAG | 9910 fluorescence intensity (a.u.) |
| AGGCTCGATTGGGTTCATGGGGTAAAACTATACTTTCATACGGAGTCACCTAGTGCAG | 9580 fluorescence intensity (a.u.) |
| GGACAACCGGATAGTAGTTGCTCTCTCTTTCCGTCTTTTTCGGAGTCACCTAGTGCAG | 10600 fluorescence intensity (a.u.) |
| CCGGTCTAAGGGTACTCATATAAATTTTTTTTCTTTTGTTCGGAGTCACCTAGTGCAG | 8560 fluorescence intensity (a.u.) |
| ACACATTCAATTTTATTCATATATCCCTTACCCTTTCATTCGGAGTCACCTAGTGCAG | 8580 fluorescence intensity (a.u.) |

Remaining list, next part

Sequence	binding signal
GTCCCAATCTGAATTTCCGGTGTTCAGTTCTACATCGCTTCGGAGTCACCTAGTGCAG	8630 fluorescence intensity (a.u.)
TAGTTAGGTGGCCATTCTTCTCCATCTCCGGCGAGTTGATCGGAGTCACCTAGTGCAG	8320 fluorescence intensity (a.u.)
GTGTCGTCCTAGCCTCCGGTCGCATTCGGCCACATCCAGCCGGAGTCACCTAGTGCAG	8170 fluorescence intensity (a.u.)
AGGGGAAATCTCGTTTTTTTCATGCATTTTGCATTGTACTCGGAGTCACCTAGTGCAG	10100 fluorescence intensity (a.u.)
ACCGTATAATTTTGCAAAATGATCCCTGTTTTGGACTTGGCGGAGTCACCTAGTGCAG	8270 fluorescence intensity (a.u.)
GGGATTTGGTGGCTGCTCGCCTCTCGCGTTTCTTTTGCTGCGGAGTCACCTAGTGCAG	10200 fluorescence intensity (a.u.)
CTCTGGTTTTAATAGTTGTGGTCAGTAGTTAAGGAACTTACGGAGTCACCTAGTGCAG	9140 fluorescence intensity (a.u.)
TGTTTTGTGTTGGTTTATGTTTCTTTGAATGTGAGTTGACCGGAGTCACCTAGTGCAG	9220 fluorescence intensity (a.u.)
AAATTAGTTTTGCAGAGAGTACCAAGTTTGATTATGTCTTCGGAGTCACCTAGTGCAG	8320 fluorescence intensity (a.u.)
ATGATAGGTCCTGGACTCACAAGTTATTGAGAACGGCACGCGGAGTCACCTAGTGCAG	50900 fluorescence intensity (a.u.)
GTGGGTTTCTAGCATCATAGGGGTATTGTAGTAACTTCCTCGGAGTCACCTAGTGCAG	17400 fluorescence intensity (a.u.)
ATGGGGTTGACTTTTTTTTAGGGATTGCTAGGTGCACCGTCGGAGTCACCTAGTGCAG	20100 fluorescence intensity (a.u.)
GATCCTCGGTTCCTCACCACACATCCTACCTAACAAACTCCGGAGTCACCTAGTGCAG	8730 fluorescence intensity (a.u.)
AACGGCAGCAGATCCACCAAACCCCACACCCTCTCCAAATCGGAGTCACCTAGTGCAG	8600 fluorescence intensity (a.u.)
TTTTTCCTATTCCTCTATTTTTTTTACAACCCTGCGATTCCGGAGTCACCTAGTGCAG	9990 fluorescence intensity (a.u.)
GCTAGTGGTGTTTAGTTTAGAAATCCTTATTGTCAGTATACGGAGTCACCTAGTGCAG	8370 fluorescence intensity (a.u.)
ATTGGATCCGGGGAGGAGGAGGTGGGGTTCGGTTTCGTGCCGGAGTCACCTAGTGCAG	11600 fluorescence intensity (a.u.)
GTGCGGTGATGTTTTTCTTCCTGTTGCATCATTTTAACTTCGGAGTCACCTAGTGCAG	11300 fluorescence intensity (a.u.)
CACCACCCACTCGACGCCGCCTTGCCTCACCACTGCTGCCCGGAGTCACCTAGTGCAG	9620 fluorescence intensity (a.u.)
AGCTGCCATGGCGATTCCTGGTTCGTTGTTCTATCGCTCACGGAGTCACCTAGTGCAG	8200 fluorescence intensity (a.u.)
GGGGATAACTTGTGGGAAATTGGGTAGAAAGGGAGTTTTGCGGAGTCACCTAGTGCAG	9850 fluorescence intensity (a.u.)
CACCGCCGTCCACCGTCATCCTTGACCGCCGCCGCTGGCCCGGAGTCACCTAGTGCAG	11400 fluorescence intensity (a.u.)
CCTTTCATTGTGTGCCCGTTCTGTGTCTACCTTTAATTTACGGAGTCACCTAGTGCAG	11400 fluorescence intensity (a.u.)
TCTCTTAGCTAAAGTTCTTTATGTTTGACTAAGTTTATCGCGGAGTCACCTAGTGCAG	9420 fluorescence intensity (a.u.)
TACTGTCTGTCAACACACTTCATGATTTCTCATCAAATATCGGAGTCACCTAGTGCAG	10400 fluorescence intensity (a.u.)
AATCAACTTCAGGTTGTCTTCGAGATGCATTTGTCCTGCCCGGAGTCACCTAGTGCAG	9590 fluorescence intensity (a.u.)
GACACACATCTCCGTACCAACGTACCTAGTCAAACACGCGCGGAGTCACCTAGTGCAG	8270 fluorescence intensity (a.u.)

— PMC7819943, “Rice protein-binding microarrays: a tool to detect cis-acting elements near promoter regions in rice”
